This passage reports activity change, negative = inhibition results from PubChem BioAssay AID588343 (Broad Institute, 2011).

The structures appear in SMILES notation. The campaign covered roughly 1,200 compounds. About 650 (54%) were called active. Roughly 5% stayed inconclusive and do not appear here.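 How the source made its calls: active means signal-lowering curve whose fitted half-maximal concentration is at or below ten times the top valid dose tested; inconclusive means flat curve with 30 to 70% inhibition, or poor fit; inactive means signal increase, flat within 30%, or potency beyond limit.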 The set was probably picked from earlier hits. This is a selection; strong and weak results do not stand in their true shares. Measured potencies and affinities stand elsewhere.

A short description of this experiment: inhibitors of LMP1-driven NF-kB reporter, dose response, cell-based, HEK293, luciferase, cherry-pick (AID 588343).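 Further: 0% = median of neutral control wells and -100% = MG132 positive control.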 The conditions noted are these: HEK293 LMP1 TES2 NF-kB luciferase reporter, 16 h; at 35 µM (top of the series). In general terms: In a reporter assay the amount or activity of a reporter protein is the signal.
Take `O=c1cccc2n1CC1CC2CN(Cc2c(F)cccc2Cl)C1` (configuration not stated): the activity change, negative = inhibition was inactive: 8.9%.

On to `Cc1nc2ccccc2n1C1CCN(Cc2nnnn2CCc2ccccc2)CC1`, for which the activity change, negative = inhibition was inactive: -14.6%.

Regarding `C#C[C@]1(O)CC[C@H]2[C@@H]3CCC4=CC(=O)CC[C@]4(C)[C@H]3CC[C@@]21C`, the activity change, negative = inhibition is inactive: 21%.

As to `CC(=O)N(C)C1=Nc2ccc(Cl)cc2C(c2ccccc2)=[N+]([O-])C1`, the activity change, negative = inhibition was inactive: -13.9%.

As for `CCN1C[C@]2(COC)CC[C@H](OC)[C@@]34C1[C@]1(OCO[C@@]15C[C@H](OC)[C@H]1C[C@@H]3[C@@H]5[C@H]1OC)[C@@H](O)[C@H]24`, the activity change, negative = inhibition is inactive: -0.915%.

As for `O=C(N/N=C/C1C(=O)NC(=S)N(c2ccccc2)C1=O)c1cc(Br)c(O)c(Br)c1` (configuration not stated), the activity change, negative = inhibition was inactive: -11.4%.

As to `COc1ccc(CCNCc2cccn2C)cc1`, the activity change, negative = inhibition was inactive: 5.47%.

In the case of `COc1ccc(OC)c([C@@H](O)[C@H](C)NC(C)(C)C)c1`, the activity change, negative = inhibition is inactive: -4.69%.

With `O=C(N/N=C/c1c(O)n(C2CCCCC2)c(=S)[nH]c1=O)c1ccccc1O`, the activity change, negative = inhibition is inactive: -3.31%.

As for `COC(=O)C1=C(c2ccc(F)cc2OCc2ccccc2)C[C@@H]2CC[C@H]1N2C(=O)NC(C)C`, the activity change, negative = inhibition is inactive: -9.45%.

`C[N+]1(C)[C@@H]2CC[C@H]1CC(OC(=O)C(CO)c1ccccc1)C2` (some centres not stated): the activity change, negative = inhibition was inactive: 1.26%.

Consider `CCN(CC)CCCN=Cc1c(O)n(Cc2ccc(F)cc2)c(=O)[nH]c1=O`, for which the activity change, negative = inhibition is inactive: -8.31%.

For the molecule `O=C(O)CCCOc1ccc(Cl)cc1Cl`, the activity change, negative = inhibition was inactive: -4.85%.

In the case of `CC1(C(=O)O)CC12c1ccccc1-c1ccccc12` (configuration not stated), the activity change, negative = inhibition was inactive: -11.7%.

As for `C[C@@H]1CN(C2CCC(C#N)(c3ccc(F)cc3)CC2)CC[C@]1(C(=O)O)c1ccccc1` (some centres not stated), the activity change, negative = inhibition was inactive: 14.2%.

Turning to `CN1[C@@H]2CC[C@H]1CC(OC(=O)C1C=Nc3ccccc31)C2` (some centres not stated), the activity change, negative = inhibition is inactive: 36.6%.

For the molecule `Fc1ccc(C(OCCN2CCCC2)c2ccc(F)cc2)cc1`, the activity change, negative = inhibition is inactive: 17.2%.

On to `CCN1C[C@]2(C)CC[C@H](O)[C@]34C1[C@H](C[C@H]23)[C@@]1(O)C[C@H](OC)[C@H]2C[C@@H]4[C@@H]1C2O` (some centres not stated), for which the activity change, negative = inhibition was inactive: -5.52%.

For the molecule `COC(=O)C1C2CC[C@@H](CC1OC(=O)c1ccccc1)N2` (some centres not stated), the activity change, negative = inhibition is inactive: 1.78%.

Regarding `O=[N+]([O-])c1ccc(CN2CC=C(c3ccccc3)CC2)cc1`, the activity change, negative = inhibition is inactive: 30.1%.

`COC(=O)C1=C(c2ccc3ccccc3c2)C[C@@H]2CC[C@H]1N2C(=O)N1CCC(O)CC1`: the activity change, negative = inhibition was inactive: -5.03%.

Regarding `COc1c2c(cc3c1OCO3)CCN(C)C2`, the activity change, negative = inhibition was inactive: 8.11%.
